Data published in paper PMC7346168, “Redox Conformation-Specific Protein–Protein Interactions of the 2-Cysteine Peroxiredoxin in Arabidopsis” (Antioxidants, 2020).
Results are given in words; binding and its absence hold for the method and conditions named. For some assays here: Sequences can lack the tags named with a protein.

T1: 2-cysteine peroxiredoxin A, wild type (2-CysPRXA WT) (Arabidopsis) (UniProt Q96291)
T1 sequence: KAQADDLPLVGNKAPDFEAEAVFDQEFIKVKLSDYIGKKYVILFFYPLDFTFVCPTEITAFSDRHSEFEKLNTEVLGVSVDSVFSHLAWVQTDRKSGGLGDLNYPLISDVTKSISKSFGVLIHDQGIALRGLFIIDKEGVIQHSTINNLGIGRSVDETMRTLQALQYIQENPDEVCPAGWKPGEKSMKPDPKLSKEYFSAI

T2: 2-CysPRXA C54S (pseudo-reduced variant) (Arabidopsis) (UniProt Q96291)
T2 sequence: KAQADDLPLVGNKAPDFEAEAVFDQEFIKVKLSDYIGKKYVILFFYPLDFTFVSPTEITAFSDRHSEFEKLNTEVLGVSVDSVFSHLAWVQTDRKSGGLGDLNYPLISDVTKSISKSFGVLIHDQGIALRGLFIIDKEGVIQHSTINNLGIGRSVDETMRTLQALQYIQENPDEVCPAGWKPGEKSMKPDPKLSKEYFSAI


Key:
[1] = target: T1, 2-cysteine peroxiredoxin A, wild type (2-CysPRXA WT) (Arabidopsis); assay: ITC; CS, FD-GOGAT or ßCA1 injected into 2-CysPRXA WT or C54S; proteins redox-adjusted (10 mM DTT or 1 mM H2O2) and dialysed; 35 mM HEPES pH 8.0; redox state of these runs not told; both purified
[2] = target: T2, 2-CysPRXA C54S (pseudo-reduced variant) (Arabidopsis); assay: as above

Molecule | binding [1] | binding [2]
FERREDOXIN-… GLUTAMATE SYNTHASE 1, recombinant hisx6-tagged (from UniProt Q9ZNZ7 106-1622) (enzyme) | no binding | 
CHORISMATE SYNTHASE, recombinant hisx6-tagged (enzyme, UniProt P57720 51-436) TGSSYGTHFRVSTFGESHGGGVGCIIDGCPPRIPLTESDLQFDLDRRRPGQSRITTPRKETDTCRISSGVSEGMTTGTPIHVFVPNTDQRGLDYSEMSVAYRPSHADATYDMKYGVRSVQGGGRSSARETIGRVAPGALAKKILKQFAGTEILAYVSQVHHVVLPEELVDHENLTLEQIENNIVRCPNPEYAEKMIAAIDAVRTKGNSVGGVVTCIVRNAPRGLGTPVFDKLEAELAKACMSLPATKGFEFGSGFAGTFLTGLEHNDEFYTDENGRIRTRTNRSGGIQGGISNGEIINMRVAFKPTSTIGRKQNTVTRDKVETEMIARGRHDPCVVPRAVPMVEAMVALVLVDQLMAQYAQCHLFPINPELQEPLQIEQPQNATAL |  | no binding
